Values from PubChem BioAssay AID1259425 (University of Nebraska Medical Center, 2018)
The deposit covers about 14,000 reagents; this is an unselected part. Some reagents were tested in more than one well and are listed for each. Further read-outs or replicates are left out here. Not stated in the record: the time to read-out.

Test: 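Compare each knockdown with KSR1 silencing using changes in marker transcripts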 (primary screen)
Cell system: HCT116 human colon cancer cells
Knock-down reagent: siRNA pool against human genes, 50 nM siRNA
Measurement: 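mRNA of six signature genes measured together by branched-DNA assay after 50 nM siRNA pool, blank removed, divided by geometric mean of two housekeeping genes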
Reading the numbers: BNIP3L mRNA: higher = more BNIP3L transcript after knockdown; NDRG1 mRNA: higher = more NDRG1 transcript after knockdown

The opening 2 records, ahead of the listing:
ZNF165 (GeneID 7718)
- BNIP3L mRNA, set 1: 0.125
- NDRG1 mRNA, set 1: 0.0929

TOR4A (GeneID 54863)
- BNIP3L mRNA, set 1: 0.0758
- NDRG1 mRNA, set 1: 0.269

Results, from the start:
ZNF165 (GeneID 7718)
- BNIP3L mRNA, set 1: 0.125
- NDRG1 mRNA, set 1: 0.0929

TOR4A (GeneID 54863)
- BNIP3L mRNA, set 1: 0.0758
- NDRG1 mRNA, set 1: 0.269

RPRD2 (GeneID 23248)
- BNIP3L mRNA, set 1: 0.197
- NDRG1 mRNA, set 1: 0.27

ASAH1 (GeneID 427)
- BNIP3L mRNA, set 1: 0.142
- NDRG1 mRNA, set 1: 0.729

PEX6 (GeneID 5190)
- BNIP3L mRNA, set 1: 0.055
- NDRG1 mRNA, set 1: 0.145

SHOX (GeneID 6473)
- BNIP3L mRNA, set 1: 0.0845
- NDRG1 mRNA, set 1: 0.123

P2RY2 (GeneID 5029)
- BNIP3L mRNA, set 1: 0.0702
- NDRG1 mRNA, set 1: 0.0361

P2RY2 (GeneID 5029)
- BNIP3L mRNA, set 1: 0.0551
- NDRG1 mRNA, set 1: 0.0378

MRPL28 (GeneID 10573)
- BNIP3L mRNA, set 1: 0.0594
- NDRG1 mRNA, set 1: 0.185

MRPS35 (GeneID 60488)
- BNIP3L mRNA, set 1: 0.0865
- NDRG1 mRNA, set 1: 0.167

ZNF410 (GeneID 57862)
- BNIP3L mRNA, set 1: 0.117
- NDRG1 mRNA, set 1: 0.189

CDIPT (GeneID 10423)
- BNIP3L mRNA, set 1: 0.19
- NDRG1 mRNA, set 1: 0.242

PRRX1 (GeneID 5396)
- BNIP3L mRNA, set 1: 0.083
- NDRG1 mRNA, set 1: 0.157

IKZF3 (GeneID 22806)
- BNIP3L mRNA, set 1: 0.0897
- NDRG1 mRNA, set 1: 0.197

TBX3 (GeneID 6926)
- BNIP3L mRNA, set 1: 0.11
- NDRG1 mRNA, set 1: 0.124

BKGD (GeneID 28970)
- BNIP3L mRNA, set 1: 0.134
- NDRG1 mRNA, set 1: 0.17

TXNDC17 (GeneID 84817)
- BNIP3L mRNA, set 1: 0.0761
- NDRG1 mRNA, set 1: 0.21

NAA10 (GeneID 8260)
- BNIP3L mRNA, set 1: 0.228
- NDRG1 mRNA, set 1: 0.507

HNRNPL (GeneID 3191)
- BNIP3L mRNA, set 1: 0.227
- NDRG1 mRNA, set 1: 1.4

BTN2A3P (GeneID 54718)
- BNIP3L mRNA, set 1: 0.151
- NDRG1 mRNA, set 1: 0.189

SCAF8 (GeneID 22828)
- BNIP3L mRNA, set 1: 0.22
- NDRG1 mRNA, set 1: 0.206

PRKAR1A (GeneID 5573)
- BNIP3L mRNA, set 1: 0.0567
- NDRG1 mRNA, set 1: 0.128

SLC47A1 (GeneID 55244)
- BNIP3L mRNA, set 1: 0.0699
- NDRG1 mRNA, set 1: 0.157

KRT16 (GeneID 3868)
- BNIP3L mRNA, set 1: 0.0625
- NDRG1 mRNA, set 1: 0.173

IFITM2 (GeneID 10581)
- BNIP3L mRNA, set 1: 0.0702
- NDRG1 mRNA, set 1: 0.0918

HMBOX1 (GeneID 79618)
- BNIP3L mRNA, set 1: 0.125
- NDRG1 mRNA, set 1: 0.458

SUPT7L (GeneID 9913)
- BNIP3L mRNA, set 1: 0.0806
- NDRG1 mRNA, set 1: 0.236

TRDN (GeneID 10345)
- BNIP3L mRNA, set 1: 0.11
- NDRG1 mRNA, set 1: 0.303
